From paper PMC8141524
These are yes or no findings as the source states them, for the method shown. A result given as binding can be weak or reduced; the word gives no strength. For some assays here: Tags and fused reporters may be left off the sequences shown.

By UniProt entry, the sequences of proteins in these tests, tags left out. Where a name states a change or a piece, a line headed by the entry shows the natural chain unless it says otherwise.
UniProt O09106: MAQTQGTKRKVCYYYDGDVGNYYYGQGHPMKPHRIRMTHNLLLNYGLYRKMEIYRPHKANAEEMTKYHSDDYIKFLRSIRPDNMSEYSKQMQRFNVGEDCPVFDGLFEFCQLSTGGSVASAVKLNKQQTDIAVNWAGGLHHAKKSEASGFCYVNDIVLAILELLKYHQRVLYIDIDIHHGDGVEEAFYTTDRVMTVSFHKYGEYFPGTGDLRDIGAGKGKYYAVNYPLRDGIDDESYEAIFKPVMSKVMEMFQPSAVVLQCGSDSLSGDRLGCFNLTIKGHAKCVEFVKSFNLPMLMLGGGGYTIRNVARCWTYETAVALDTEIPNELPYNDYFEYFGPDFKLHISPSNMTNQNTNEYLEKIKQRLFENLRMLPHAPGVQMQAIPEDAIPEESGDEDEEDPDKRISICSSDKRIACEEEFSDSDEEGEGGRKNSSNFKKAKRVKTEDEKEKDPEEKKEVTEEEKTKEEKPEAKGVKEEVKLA
UniProt Q05516: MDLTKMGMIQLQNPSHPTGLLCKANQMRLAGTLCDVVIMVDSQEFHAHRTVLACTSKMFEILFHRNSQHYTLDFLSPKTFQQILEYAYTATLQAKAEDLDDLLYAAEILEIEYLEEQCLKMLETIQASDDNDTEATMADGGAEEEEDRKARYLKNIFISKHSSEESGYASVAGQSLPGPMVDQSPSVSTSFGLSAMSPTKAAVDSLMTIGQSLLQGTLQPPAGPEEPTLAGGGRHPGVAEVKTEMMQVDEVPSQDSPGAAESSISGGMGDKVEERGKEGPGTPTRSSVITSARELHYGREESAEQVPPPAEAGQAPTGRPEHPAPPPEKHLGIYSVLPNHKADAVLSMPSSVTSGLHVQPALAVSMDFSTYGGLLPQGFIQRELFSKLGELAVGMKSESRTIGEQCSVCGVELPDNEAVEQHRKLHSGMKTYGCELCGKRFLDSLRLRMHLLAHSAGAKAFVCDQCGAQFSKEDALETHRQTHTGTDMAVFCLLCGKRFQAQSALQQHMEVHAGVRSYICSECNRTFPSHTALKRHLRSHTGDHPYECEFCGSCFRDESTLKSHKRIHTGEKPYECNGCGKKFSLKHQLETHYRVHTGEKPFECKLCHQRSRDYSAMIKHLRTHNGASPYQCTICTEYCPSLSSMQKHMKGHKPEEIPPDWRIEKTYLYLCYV

Columns and labels:
[1] = biological target: GST-tagged mouse HDAC1 (mouse) (UniProt O09106); assay: pull-down; 200 nM His6-tagged BTB domain with equimolar GST-tagged protein, 50 mM HEPES pH 8.0, 150 mM NaCl, 0.1% IGEPAL-CA630, 2 mM EDTA, 4 °C; glutathione sepharose 4B; immunoblot anti-His; both purified
[2] = biological target: T1, GST-SMRT(1383-1467), residues 1383-1467 of mouse SMRT (mouse) (UniProt Q9WU42); assay: as above
T1 sequence: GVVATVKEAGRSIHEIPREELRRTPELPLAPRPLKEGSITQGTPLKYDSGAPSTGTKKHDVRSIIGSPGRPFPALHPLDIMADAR

His6-tagged BTB domain of PLZF (from UniProt Q05516) (domain or fragment)
binding [1]: binds
binding [2]: binds
